The name of at least one read-out is uncertain.
Target: SurA (Escherichia coli, UniProt P0ABZ6)
Type: binding, E. coli
Conditions: qualitative
Description: His-tagged SurA was labeled with the Monolith His-Tag Labeling Kit RED-tris-NTA (Nanotemper) according to the manufacturer's instructions.
Microscale thermophoresis measurements were performed in 40 mM HEPES pH 7.4, 0.05 % Tween-20 at 25°C with a Monolith NT.115 (NanoTemper) in standard capillaries.

The chains behind the UniProt entries cited, without tags or fusion partners. Residues count along the entry.
UniProt P0ABZ6, 21-428: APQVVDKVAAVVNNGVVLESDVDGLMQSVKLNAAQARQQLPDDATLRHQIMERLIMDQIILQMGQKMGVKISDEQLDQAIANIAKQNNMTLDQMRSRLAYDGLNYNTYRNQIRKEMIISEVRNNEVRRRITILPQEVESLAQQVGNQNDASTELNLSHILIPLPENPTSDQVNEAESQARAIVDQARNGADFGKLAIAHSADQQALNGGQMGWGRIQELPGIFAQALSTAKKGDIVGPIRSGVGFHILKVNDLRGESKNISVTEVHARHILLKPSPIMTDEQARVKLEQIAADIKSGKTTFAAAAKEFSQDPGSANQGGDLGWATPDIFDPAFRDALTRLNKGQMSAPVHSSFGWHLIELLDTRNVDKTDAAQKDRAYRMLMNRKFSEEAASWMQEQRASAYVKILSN

CN(C)c1ccc(-c2nc3cc(NC(=O)Cn4cc5ccccc5n4)ccc3[nH]2)cc1 [QHL-24, N-(2-(4-(dimethylamino)phenyl)-1H-benzo[d]imidazol-5-yl)-2-(2H-indazol-2-yl)acetamide]
MST (binding, KD not fitted): binding
